Reference: the supplement of paper PMC8166895
Where a name gives a salt, the structure may show the parent alone. The list shows a part of the results. Most entries show no effect beyond the scatter of the controls.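 A single-replicate pilot screen of approved drugs and clinical or known-target compounds measured melting temperature via differential scanning fluorimetry. Top stabilizing hits raised the melting point by 2 °C or more; negative shifts indicate destabilization.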

What follows are compounds tested on SARS-CoV-2 main protease (Mpro, nsp5) (assay: thermal shift ΔTm of Mpro relative to plate average Tm; higher = stronger thermal stabilization of Mpro (binding)). Details: 10 µM; protein concentration 1 µM.

Structure (SMILES)	thermal shift ΔTm of Mpro
Cc1c(NC(=O)c2ccc(C(C)(C)C)cc2)cccc1-c1cn(C)c(=O)c(Nc2ccc(C(=O)N3CCOCC3)cc2)n1	-0.245 °C
O=[N+]([O-])c1ccc([As](=O)(O)O)cc1 [Nitarsone]	0.173 °C
O=C(O)Cc1ccccc1Nc1c(Cl)cccc1Cl [Diclofenac]	-0.0153 °C
O=C(O)Cc1ccccc1Nc1c(Cl)cccc1Cl [Diclofenac Diethylamine]	0.093 °C
O=C(O)Cc1ccccc1Nc1c(Cl)cccc1Cl [Diclofenac Potassium]	-0.0343 °C
O=C(O)Cc1ccccc1Nc1c(Cl)cccc1Cl [Diclofenac Sodium]	0.0239 °C
C[C@@H](c1ncncc1F)[C@](O)(Cn1cncn1)c1ccc(F)cc1F [Voriconazole]	0.192 °C
C=C(C)[C@@H]1CCC2=CC(=O)C[C@@H](C)[C@]2(C)C1 [Nootkatone]	-0.0808 °C
CN(C)CCCNC(=O)c1ccc(-c2cc(O)c3ncccc3c2)cc1	-0.232 °C
C[C@@H]1CC(=O)NN=C1c1ccc(NN=C(C#N)C#N)cc1 [Levosimendan]	0.00185 °C
O=c1[nH]c(=O)n([C@@H]2O[C@H](CO)[C@@H](O)[C@H]2O)cc1F [5-Fluorouridine]	0.201 °C
CC(C)NC[C@H](O)COc1ccc(CCOCC2CC2)cc1 [Levobetaxolol HCl]	-0.143 °C
NC(=O)c1cccc2[nH]c(-c3ccc(C4CCCN4)cc3F)nc12 (stereo unspecified)	-0.0319 °C
COc1cc(N2CCN(C)CC2)ccc1Nc1nccc(-c2cn(C)c3cnccc23)n1	-0.246 °C
COc1cc2c(cc1O)CC[C@@H]1[C@@H]2CC[C@]2(C)[C@@H](O)CC[C@@H]12 [2-Methoxyestradiol (2-MeOE2)]	0.364 °C
CC1(C)C(C=C(Cl)Cl)C1C(=O)OCc1cccc(Oc2ccccc2)c1 (stereo unspecified) [Permethrin]	0.00591 °C
Clc1ccccc1CN1CCc2sccc2C1 [Ticlopidine hydrochloride]	0.302 °C
CCC(=O)O[C@H](CC(=O)O)C[N+](C)(C)C [Propionyl-L-carnitine hydrochloride]	-0.035 °C
Nc1ccc(O)c(C(=O)O)c1 [Mesalamine]	-0.401 °C
O=C1NC(=O)/C(=C\c2ccc3nccnc3c2)S1	0.0186 °C
C[C@@H](NC(=O)[C@@H](N)Cc1ccc(O)cc1)C(=O)NCC(=O)N(C)[C@@H](Cc1ccccc1)C(=O)NCCO	0.0536 °C
Cc1cc(NC(=O)C2=C(O)c3ccccc3S(=O)(=O)N2C)no1 [Isoxicam]	0.271 °C
Nc1nccc(-c2c(-c3ccc(F)cc3)ncn2C2CCCCC2)n1	0.161 °C
CN(C)CCCN1c2ccccc2CCc2ccc(Cl)cc21 [Clomipramine HCl]	-0.0666 °C
O=C(O)CSc1cc(NS(=O)(=O)c2ccc(Br)cc2)c2ccccc2c1O	0.173 °C
COC(=O)N1CCN(Cc2cccc(NC(=O)Nc3ccc(C)nc3)c2F)CC1	0.0174 °C

Structure (SMILES)	thermal shift ΔTm of Mpro
CC(C)[C@H](C(=O)Nc1ccc(C(=O)NO)cc1)c1ccccc1	-0.0748 °C
C#C[C@]1(OC(C)=O)CC[C@H]2[C@@H]3CCC4=C[C@@H](OC(C)=O)CC[C@@H]4[C@H]3CC[C@@]21C [Ethynodiol diacetate]	0.0382 °C
O=C(N[C@@H](c1ccccc1)[C@@H](O)C(=O)O)c1ccccc1 [N-Benzoyl-(2R,3S)-3-phenylisoserine]	0.0654 °C
Oc1cc(-c2nc(-c3ccccc3)[nH]c2-c2ccncc2)ccc1Cl	0.204 °C
O=c1cccc2n1CC1CC2CN2CCCCC12 (stereo unspecified) [Thermopsine]	2.56 °C
CNC1CCC(N(Cc2cccc(-c3ccncc3)c2)C(=O)c2sc3ccccc3c2Cl)CC1 (stereo unspecified) [Smoothened Agonist (SAG) HCl]	-0.33 °C
CNC1CCC(N(Cc2cccc(-c3ccncc3)c2)C(=O)c2sc3ccccc3c2Cl)CC1 (stereo unspecified) [SAG hydrochloride]	-0.233 °C
COc1ccnc(C[S+]([O-])c2nc3cc(-n4cccc4)ccc3[nH]2)c1C (stereo unspecified) [Ilaprazole sodium]	-0.968 °C
NC(=O)c1ccc2nc(-c3ccc(Oc4ccc(Cl)cc4)cc3)[nH]c2c1	0.0061 °C
COc1ccc(C[C@H]2NC[C@H](O)[C@H]2OC(C)=O)cc1 [Anisomycin]	-0.158 °C
CCCC(C)NC(=O)c1ccc(Cl)c(Cl)c1 (stereo unspecified)	-0.148 °C
Nc1ccc(S(=O)(=O)Nc2ncccn2)cc1 [Sulfadiazine]	0.0493 °C
C=CCc1cc(OC)c(O)c(C(=O)NCCO)c1 [Alibendol]	0.0751 °C
O=C(NC[C@H](O)CN1CCc2ccccc2C1)c1ccnc(NC2CCC2)c1	-0.0939 °C
Oc1cc(O)cc(/C=C/c2ccccc2)c1 [Pinosylvin]	-0.000424 °C
COc1cc(/C=C/C(=O)O[C@H]2[C@H](O)[C@@H](CO)O[C@@]2(CO)O[C@H]2O[C@H](CO)[C@@H](O)[C@H](O)[C@H]2O)cc(OC)c1O [Sibiricose A6]	-0.0775 °C
C#C[C@]1(O)CC[C@H]2[C@@H]3CCC4=CC(=O)CC[C@@H]4[C@H]3CC[C@@]21C [Norethindrone]	0.0631 °C
COc1ccc2c(c1)/C(=C/c1cnc[nH]1)C(=O)N2	-0.206 °C
CCOc1cn(-c2ccc(F)cc2C)nc1C(=O)Nc1ccc(Oc2ccnc3cc(OC)c(OC)cc23)c(F)c1	-0.135 °C
N[C@@H]1CCCN(c2c(/C=C3\SC(=O)NC3=O)cccc2-c2ccccc2)C1	-0.0207 °C
CCC1(c2cccc(O)c2)CCCCN(C)C1 (stereo unspecified) [Meptazinol HCl]	0.198 °C
CO[C@H]1C[C@@H]2CC[C@@H](C)[C@@](O)(O2)C(=O)C(=O)N2CCCC[C@H]2C(=O)O[C@H]([C@H](C)C[C@@H]2CC[C@@H](O)[C@H](OC)C2)CC(=O)[C@H](C)/C=C(\C)[C@@H](O)[C@@H](OC)C(=O)[C@H](C)C[C@H](C)/C=C/C=C/C=C/1C [Rapamycin (Sirolimus)]	-0.644 °C
COc1ccc(-c2oc3c(CC=C(C)C)c(O[C@@H]4O[C@H](CO)[C@@H](O)[C@H](O)[C@H]4O)cc(O)c3c(=O)c2O[C@@H]2O[C@@H](C)[C@H](O)[C@@H](O[C@@H]3O[C@H](CO)[C@@H](O)[C@H](O)[C@H]3O)[C@H]2O)cc1 [Epimedin A1]	-0.0258 °C
CCOc1ccccc1C(N)=O [Anovigam]	0.0381 °C
C[C@@H]1CC[C@H]2[C@@H](C)C(=O)O[C@@H]3O[C@@]4(C)CC[C@@H]1[C@]32OO4 [Artemisinin]	0.173 °C

A different layout for part of the listing above.
Structure (SMILES),thermal shift ΔTm of Mpro
CNC1CCC(N(Cc2cccc(-c3ccncc3)c2)C(=O)c2sc3ccccc3c2Cl)CC1 (stereo unspecified) [Smoothened Agonist (SAG) HCl],-0.33 °C
COc1ccc(C[C@H]2NC[C@H](O)[C@H]2OC(C)=O)cc1 [Anisomycin],-0.158 °C
